Changes are numbered by the printed parent chain. These are yes or no findings as the source states them, for the method shown. In cells and extracts the contact can be indirect. Some results given as binding are weak or reduced against the parent protein; the word gives no strength. For some of these results: Tags and fused reporters may be left off the sequences shown.
B1: VAPA endogenous in mouse brain (protein, UniProt Q9WV55 1-249)
chain: MASASGAMAKHEQILVLDPPSDLKFKGPFTDVVTTNLKLQNPSDRKVCFKVKTTAPRRYCVRPNSGIIDPGSIVTVSVMLQPFDYDPNEKSKHKFMVQTIFAPPNISDMEAVWKEAKPDELMDSKLRCVFEMPNENDKLNDMEPSKAVPLNASKQDGPLPKPHSVSLNDTETRKLMEECKRLQGEMMKLSEENRHLRDEGLRLRKVAHSDKPGSTSAVSFRDNVTSPLPSLLVVIAAIFIGFFLGKFIL
B2: WLS (GPR177) endogenous in mouse brain (protein, UniProt Q6DID7 1-541)
chain: MAGAIIENMSTKKLCIVGGILLVFQIVAFLVGGLIAPAPTTAVPYTAIKCVDVRKNHHKTRWLAPWGPNKCDKIRDIEEAIPREIEANDIVFSVHIPLPSMEMSPWFQFMLFILQLDIAFKLNNQIRENAEISMDVSLGYRDDMFSEWTEMAHERVPRKLKCTFTSPKTPEHEGRYYNCDVLPFMEIGSVAHKYYLLNIRLPVNEKKKINVGIGEIKDIRLVGIHQNGGFTKVWFAMKTFLTPSIFIIMVWYWRRITMMSRPPVLLEKVIFALGISMTFINIPVEWFSIGFDWTWMLLFGDIRQGIFYAMLLSFWIIFCGEHMMDQHERNHIAGYWKQVGPIAVGSFCLFIFDMCERGVQLTNPFYSIWTTDVGTELAMAFIIVAGICLCLYFLFLCFMVFQVFRNISGKQSSLPAMSKVRRLHYEGLIFRFKFLMLITLACAAMTVIFFIVSQVSEGHWKWGGVTVQVSSAFFTGIYGMWNLYVFALMFLYAPSHKNYGEDQSNGDLGVHSGEELQLTTTITHVDGPTEIYKLTRKEAQE
B3: myc-tagged full-length AUP1 (protein, UniProt Q9Y679-2 1-410)
chain: MELPSGPGPERLFDSHRLPGDCFLLLVLLLYAPVGFCLLVLRLFLGIHVFLVSCALPDSVLRRFVVRTMCAVLGLVARQEDSGLRDHSVRVLISNHVTPFDHNIVNLLTTCSTPLLNSPPSFVCWSRGFMEMNGRGELVESLKRFCASTRLPPTPLLLFPEEEATNGREGLLRFSSWPFSIQDVVQPLTLQVQRPLVSVTVSDASWVSELLWSLFVPFTVYQVRWLRPVHRQLGEANEEFALRVQQLVAKELGQTGTRLTPADKAEHMKRQRHPRLRPQSAQSSFPPSPGPSPDVQLATLAQRVKEVLPHVPLGVIQRDLAKTGCVDLTITNLLEGAVAFMPEDITKGTQSLPTASASKFPSSGPVTPQPTALTFAKSSWARQESLQERKQALYEYARRRFTERRAQEAD
B4: myc-tagged full-length human SIAH1 (enzyme, UniProt Q8IUQ4-1 1-282)
chain: MSRQTATALPTGTSKCPPSQRVPALTGTTASNNDLASLFECPVCFDYVLPPILQCQSGHLVCSNCRPKLTCCPTCRGPLGSIRNLAMEKVANSVLFPCKYASSGCEITLPHTEKADHEELCEFRPYSCPCPGASCKWQGSLDAVMPHLMHQHKSITTLQGEDIVFLATDINLPGAVDWVMMQSCFGFHFMLVLEKQEKYDGHQQFFAIVQLIGTRKQAENFAYRLELNGHRRRLTWEATPRSIHEGIATAIMNSDCLVFDTSIAQLFAENGNLGINVTISMC
B5: myc-tagged full-length SIAH2 (enzyme, UniProt O43255 1-324)
chain: MSRPSSTGPSANKPCSKQPPPQPQHTPSPAAPPAAATISAAGPGSSAVPAAAAVISGPGGGGGAGPVSPQHHELTSLFECPVCFDYVLPPILQCQAGHLVCNQCRQKLSCCPTCRGALTPSIRNLAMEKVASAVLFPCKYATTGCSLTLHHTEKPEHEDICEYRPYSCPCPGASCKWQGSLEAVMSHLMHAHKSITTLQGEDIVFLATDINLPGAVDWVMMQSCFGHHFMLVLEKQEKYEGHQQFFAIVLLIGTRKQAENFAYRLELNGNRRRLTWEATPRSIHDGVAAAIMNSDCLVFDTAIAHLFADNGNLGINVTISTCCP
B6: myc-tagged full-length VAPA (protein, UniProt Q9P0L0-1 1-249)
chain: B1 chain with S21T, Q40R, I73T, I106T, L159M, A217T, V218A
B7: myc-tagged full-length WLS (protein, UniProt Q5T9L3-1 1-541)
chain: MAGAIIENMSTKKLCIVGGILLVFQIIAFLVGGLIAPGPTTAVSYMSVKCVDARKNHHKTKWFVPWGPNHCDKIRDIEEAIPREIEANDIVFSVHIPLPHMEMSPWFQFMLFILQLDIAFKLNNQIRENAEVSMDVSLAYRDDAFAEWTEMAHERVPRKLKCTFTSPKTPEHEGRYYECDVLPFMEIGSVAHKFYLLNIRLPVNEKKKINVGIGEIKDIRLVGIHQNGGFTKVWFAMKTFLTPSIFIIMVWYWRRITMMSRPPVLLEKVIFALGISMTFINIPVEWFSIGFDWTWMLLFGDIRQGIFYAMLLSFWIIFCGEHMMDQHERNHIAGYWKQVGPIAVGSFCLFIFDMCERGVQLTNPFYSIWTTDIGTELAMAFIIVAGICLCLYFLFLCFMVFQVFRNISGKQSSLPAMSKVRRLHYEGLIFRFKFLMLITLACAAMTVIFFIVSQVTEGHWKWGGVTVQVNSAFFTGIYGMWNLYVFALMFLYAPSHKNYGEDQSNGDLGVHSGEELQLTTTITHVDGPTEIYKLTRKEAQE

Protein sequences, listed by entry. Tags and fused reporters are not part of them.
UniProt P42866: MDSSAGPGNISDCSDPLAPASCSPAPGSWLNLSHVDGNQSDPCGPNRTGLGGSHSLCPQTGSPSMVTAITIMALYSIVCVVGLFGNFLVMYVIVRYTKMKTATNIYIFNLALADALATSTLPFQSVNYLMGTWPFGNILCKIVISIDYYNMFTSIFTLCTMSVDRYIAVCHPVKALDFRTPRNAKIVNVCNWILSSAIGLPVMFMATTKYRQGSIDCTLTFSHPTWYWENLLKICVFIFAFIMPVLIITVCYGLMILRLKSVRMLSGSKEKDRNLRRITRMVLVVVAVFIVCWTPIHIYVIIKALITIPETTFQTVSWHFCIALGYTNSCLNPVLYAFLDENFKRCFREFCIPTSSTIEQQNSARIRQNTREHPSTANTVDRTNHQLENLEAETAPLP
UniProt P41145: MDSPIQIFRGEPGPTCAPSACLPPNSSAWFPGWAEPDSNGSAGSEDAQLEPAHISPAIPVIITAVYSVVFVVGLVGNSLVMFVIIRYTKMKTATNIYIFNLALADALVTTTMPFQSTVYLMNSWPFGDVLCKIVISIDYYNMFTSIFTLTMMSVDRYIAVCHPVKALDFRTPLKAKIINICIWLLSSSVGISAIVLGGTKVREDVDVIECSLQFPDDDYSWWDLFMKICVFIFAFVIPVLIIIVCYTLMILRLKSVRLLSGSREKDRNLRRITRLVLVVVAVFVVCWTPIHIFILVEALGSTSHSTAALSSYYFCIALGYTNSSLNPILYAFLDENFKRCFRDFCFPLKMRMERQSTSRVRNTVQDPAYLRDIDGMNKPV

Each binder was assayed against mu-opioid receptor endogenous in mouse brain (mouse (endogenous in C57BL6 brain)) (UniProt P42866) (assay: co-IP; MOR immunoprecipitated from whole mouse brain lysate with rabbit anti-MOR (AB1580) on Protein-G MAG sepharose beads; blots with anti-SIAH1, anti-GPR177 or anti-VAPA; mock with rabbit IgG).
B1 was tested, and the binding was “binds”.
In the case of B2, the binding is reported as “binds”.

What follows are binders tested against FLAG-tagged kappa opioid receptor stably expressed in HEK293 cells (HEK-KOR) (UniProt P41145) (assay: co-IP; FLAG-tagged MOR, DOR or KOR immunoprecipitated with rabbit anti-FLAG on Protein-G Dynabeads from 1 mg lysate of stably expressing HEK293 cells transfected with tagged MORIPs; blot anti-myc or anti-HA; mock IP with non-specific rabbit IgG; cells of Figure 7B treated 6 hours with 30 µM MG132).
B3 was tested, and the binding was “binds”.
B4 was tested, and the binding was “binds”.
In the case of B5, the binding is reported as “binds”.
For B6, the binding was “binds”.
For B7, the binding was “binds”.

Reference: publication PMC3695902
